Test results as given in article PMC3535368, “Heme orientation modulates histidine dissociation and ligand binding kinetics in the hexacoordinated human neuroglobin” (Journal of Biological Inorganic Chemistry, 2012).

B1: WTred: wild-type human Ngb with reduced cysteines, both heme isomers (protein, UniProt Q9NPG2 1-151, looked up)
Neuroglobin: MERPEPELIRQSWRAVSRSPLEHGTVLFARLFALEPDLLPLFQYNCRQFSSPEDCLSSPEFLDHIRKVMLVIDAAVTNVEDLSSLEEYLASLGRKHRAVGVKLSSFSTVGESLLYMLEKCLGPAFTPATRAAWSQLYGAVVQAMSRGWDGE
modifications: reduced cysteines
notes: wild-type human Ngb with reduced cysteines, both heme isomers
- ratio k obs^A/k obs^B of on-rate values (A isomer versus B isomer): 2.2
- ratio K d,B/K d,A (B isomer versus A isomer): 2.1
